Experimental data taken from article PMC8492241.

Amino acid sequences for entries named in this document (tags omitted). Residues count along the entry.
UniProt O00116, residues 59-658: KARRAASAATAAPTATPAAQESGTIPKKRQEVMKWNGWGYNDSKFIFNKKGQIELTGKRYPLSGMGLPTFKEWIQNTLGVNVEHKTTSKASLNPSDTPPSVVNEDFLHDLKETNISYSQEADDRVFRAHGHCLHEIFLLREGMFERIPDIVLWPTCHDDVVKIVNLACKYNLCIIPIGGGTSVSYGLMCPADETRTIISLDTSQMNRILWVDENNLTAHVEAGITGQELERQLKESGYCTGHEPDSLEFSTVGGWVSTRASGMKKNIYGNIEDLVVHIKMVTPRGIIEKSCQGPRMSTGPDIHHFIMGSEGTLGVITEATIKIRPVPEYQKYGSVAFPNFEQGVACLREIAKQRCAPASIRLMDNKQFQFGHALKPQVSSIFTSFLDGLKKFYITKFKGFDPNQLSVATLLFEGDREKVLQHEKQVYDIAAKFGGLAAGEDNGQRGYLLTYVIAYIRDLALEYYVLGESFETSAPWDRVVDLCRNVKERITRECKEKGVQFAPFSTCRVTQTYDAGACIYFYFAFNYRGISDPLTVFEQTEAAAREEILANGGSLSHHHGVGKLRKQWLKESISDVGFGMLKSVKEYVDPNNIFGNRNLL

Molecular target: Alkylglycerone phosphate synthase (human (endogenous in U251)) (UniProt O00116)
Assay: affinity purification with mass spectrometry; anti-AGPS immunoprecipitate of U251 lysate, 8% SDS-PAGE, silver stain, gel cut near 180 KD, in-gel trypsin digest, LC-MS/MS (Q-Exactive), Proteome Discoverer 1.4

binding: binds
Substance: Heterogeneous nuclear ribonucleoprotein K (from UniProt P61978 1-463)

These are yes or no findings as the source states them, for the method shown. In cells and extracts the contact can be indirect. Here binding means that the protein was enriched with, or labelled near, the bait; the list need not be complete.
